# Measurements published in patent US9051592B2, “Methods of ganglioside production” (Garnet BioTherapeutics, Inc., priority 2012, dated 2015).
# Test system: Affected sheep bone marrow cells (SBM)
# Experiment: GM1 induction in affected sheep bone marrow cells by different treatments, CTB-Alexa 488 staining (Table 2)
# Conditions: 72 H (Poly-L-Lysine coated coverslips 6 Days)
row,SMILES,Observations
1,"CCN(CC)CCCC(C)Nc1ccnc2cc(Cl)ccc12 (centres unmarked) [Chloroquine, chloroquine]",Vesicular accumulation seen in most
2,"N[C@H]1C(O)O[C@H](CO)[C@@H](O)[C@@H]1O (some centres unmarked) [Glucosamine, glucosamine]",A uniform increase in peri-nuclear
